# Measured values taken from the supplement of paper PMC3334620.
# Over roughly 33,000 sequences, “E-score (-0.5 to 0.5)” has its median near -8e-05; the highest 2% begin near 0.23. This is one part of the list.
# Biological target: T1, Nrg2 (UniProt P38082)
# T1 sequence: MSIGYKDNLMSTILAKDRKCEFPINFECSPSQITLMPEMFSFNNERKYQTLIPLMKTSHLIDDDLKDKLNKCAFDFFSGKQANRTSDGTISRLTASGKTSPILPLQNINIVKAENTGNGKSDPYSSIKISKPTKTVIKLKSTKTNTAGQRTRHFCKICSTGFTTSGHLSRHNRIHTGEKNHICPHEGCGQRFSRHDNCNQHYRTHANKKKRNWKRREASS
# Test: PBM E-score (8-mer binding enrichment) (E-score (-0.5 to 0.5)); higher = stronger / more preferred TF binding
# Settings: protein concentration: 100 nM; construct: GST-full length
# How it was run: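 Yeast transcription factors, full-length or as DNA-binding domains, were expressed with a GST tag using PURExpress in vitro transcription/translation. At about 100-200 nM they were applied to universal all-10-mer Agilent arrays, double-stranded by primer extension on fresh or once-stripped slides. Fluorescent anti-GST detected bound protein, and masliner normalised the scans. E-scores for ungapped eight-base words, pooled with reverse complements, came from the Universal PBM Analysis Suite.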
row,Sequence,PBM E-score
1,CGCCTGAC,0.0417
2,ATTCCCTG,0.198
3,AGCAGTAG,-0.187
4,CCGCCTAG,-0.0286
5,AATGGTCC,0.0501
6,GTAGCTAC,0.123
7,AGACCAGA,-0.0154
8,AAGCGCAA,0.147
9,CACATTAG,-0.122
10,ATTGCTAA,0.11
11,CGGAACTA,0.134
12,GGATATCC,0.22
13,AGACGACT,-0.127
14,GAATATCC,0.00739
15,CTCCACAA,0.0307
16,CCGAACGG,-0.0332
17,CTAAAGGA,-0.086
18,GGGTAGGA,-0.0916
19,ATTTTTTG,0.219
20,GCCCAAAA,-0.0396
21,AGTGGCAA,0.0526
22,ATAAGTCG,-0.0756
23,AACCCTCC,-0.0766
24,AGGAGACT,-0.286
25,AACGTTGG,-0.175

# 2 entries drawn at random from those above:
row,Sequence,PBM E-score
6,GTAGCTAC,0.123
3,AGCAGTAG,-0.187

# (list continues)

row,Sequence,PBM E-score
1,CACGCTCA,0.122
2,ATGTGCGA,-0.0684
3,CGTGCGCC,0.086
4,ATGGCGGA,-0.0987
5,ATTGGTCC,0.0937
6,CACCAAGA,0.00109
7,GCGGATAC,0.0466
8,AGGACCGC,0.0225
9,GAAATTTC,0.152
10,GAGTACTA,0.0337
11,CGACTACA,0.072
12,AGCTATAG,-0.23
13,GGGGGTAC,-0.143
14,AGCAAAGA,-0.0188
15,AAAGAGCT,-0.0911
16,AGTTGAAT,0.136
17,CAGCTCGC,0.0988
18,CTGAAAGC,0.126
19,ATGGACTG,-0.0693
20,AATTTCTC,0.143
21,TCCACCAA,0.0692
22,AAGGGATA,0.0928
23,AACCAAGA,0.165
24,CGACAACC,-0.0659
25,GCAAGCGA,0.0941

row,Sequence,PBM E-score
1,GATTTATA,0.159
2,CGGGCTGC,0.0198
3,CTGGCTAC,-0.167
4,ATGTGTCA,0.12
5,ACAATCCT,0.0925
6,CACATATG,-0.105
7,AACCCTGC,0.134
8,CGTAGCTA,0.102
9,AACTCTGG,-0.0749
10,ACCCGCCC,0.103
11,GTACCTAA,-0.138
12,AATAATCC,-0.088
13,TATCCACA,0.131
14,CTATGGAC,0.0434
15,ACGTCTTG,-0.0332
16,ATTGCTGG,-0.166
17,AGTTTCCA,-0.104
18,CGGCTTAA,0.14
19,ACCGTGCG,0.132
20,AACATACA,-0.0232
21,AGCAATAG,-0.152
22,GTTCCTCA,-0.0478
23,AGAGGCTA,-0.248
24,GTAGGCAA,-0.163
25,ACGTCGTG,0.0108

row,Sequence,PBM E-score
1,GATCTACC,0.0319
2,CCCCACAG,-0.212
3,AAACGTTG,-0.0809
4,CCCGGGTA,0.101
5,AGCGTATG,-0.0204
6,GACTCCTA,-0.159
7,AGCATCGC,-0.0887
8,AACGACTT,-0.169
9,CTTAGAAG,-0.0649
10,CATTCTAC,0.0655
11,CAGTCATG,-0.0222
12,CAATACTA,0.053
13,AGACGGGG,-0.11
14,TAATTATA,0.319
15,CTGAATAA,0.104
16,GGCGAAGA,-0.0414
17,CCCCTACG,-0.241
18,CCAGCTTC,-0.113
19,CGCACTAC,0.0915
20,CAAGGATA,-0.0487
21,ACCACTTG,-0.0907
22,CACGGTAG,-0.149
23,GTCGTTAA,0.011
24,CATTATGA,0.0981
25,CACTAGTG,0.0655

# Reprinted from the entries so far for reference:
row,Sequence,PBM E-score
15,CTGAATAA,0.104
16,GGCGAAGA,-0.0414
17,CCCCTACG,-0.241
18,CCAGCTTC,-0.113
19,CGCACTAC,0.0915
20,CAAGGATA,-0.0487
21,ACCACTTG,-0.0907

# (cont.)

row,Sequence,PBM E-score
1,AGCCCCTC,0.072
2,CCCAAAAC,0.194
3,GACGGATA,0.141
4,ATCGCTTA,-0.12
5,TGCACTAA,0.0567
6,CGGGGGAG,-0.372
7,AGATTCGG,0.063
8,AGCACATC,0.0162
9,GAGTATGA,0.0724
10,ACTATTGA,0.149
11,TCCGATAA,-0.205
12,AGTGGATA,0.0393
13,GATTTTAC,-0.105
14,ACTTGAGC,-0.295
15,ACATGAGT,-0.123
16,CCTATATC,0.0227
17,AATTCCTC,0.0114
18,GTCGTGGA,-0.103
19,CTCGAAGC,-0.0814
20,CGAAATAG,0.0167
21,ACCAGGAG,0.084
22,ACAAGACC,-0.181
23,AAGTAGAA,0.0341
24,AGAGGTAC,-0.0262
25,TCTGCGCA,0.115

row,Sequence,PBM E-score
1,CTCATAAG,-0.0657
2,CGTCCGAC,-0.166
3,CATCCCCC,-0.261
4,GACGAAGC,-0.0852
5,GGAACGAC,-0.259
6,CTAATAGA,0.0351
7,GCCGCGAA,-0.0435
8,ATATAGTA,0.155
9,ATCAGTTG,0.122
10,GATCTTGC,0.104
11,CGACCAGA,-0.0372
12,CTTCCATC,-0.137
13,GAGCGATC,-0.0196
14,TCGGCAAA,-0.0772
15,ATCGCACG,-0.137
16,GACATAGC,0.00058
17,AAGCGCGA,0.1
18,ACCAAGGA,-0.0125
19,ATCGGGGC,-0.0344
20,ACTCTCCC,-0.0739
21,AATAGACT,-0.0747
22,ATAACCCC,0.0685
23,CCGTGTAC,0.0899
24,CAGTACTA,0.0797
25,ACATCTCT,-0.0152

row,Sequence,PBM E-score
1,CTAGCTTC,0.0751
2,AACATTTG,0.018
3,GGCAAAAA,0.2
4,AAAACGCG,0.285
5,AGTCGTCA,-0.152
6,ACCACCTC,0.0373
7,TGGCCAAA,-0.0346
8,CCCTACAA,0.169
9,GGAGGGTA,0.0877
10,CGCCAGTA,-0.0877
11,CAGTTTCC,0.0862
12,GATTCGCC,0.155
13,AAGGTCCG,-0.0532
14,GATCGTAC,-0.0711
15,ACCGGAGC,-0.224
16,AAGCAGGT,-0.109
17,CGGCATCC,-0.0713
18,CAACCTCG,0.146
19,CGAATACG,0.119
20,CGTATACC,-0.137
21,TAGAGGGA,-0.221
22,CTGTAAAC,-0.18
